Counter-ions that a name gives are not always drawn. Some of the results follow. Hit calls seldom repeat between salt and free forms of one compound.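 In K562 cells expressing nanoluciferase-fused kinases, luminescence was recorded at 4 h intervals between 2 and 18 h, normalized as percent of control with DMSO at 100% and a positive control at 0%. A significant (2 sigma) signal drop marks a time point as decreased. The authors' rule for a hit is not shown and takes in more than the number of time points.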
How the values were obtained:
Experiment in all cases: kinase-Nluc reporter destabilization hit call (1 = scored as downregulated) (binary); higher = compound decreases kinase abundance
Conditions in all cases: K562; 2-18 h
[1] = target: MAPK1 (UniProt P28482)
[2] = target: MAPK4 (UniProt P31152)
[3] = target: MAPKAPK2 (UniProt P49137)
[4] = target: MKNK1 (UniProt Q9BUB5)
[5] = target: NTRK2 (UniProt Q16620)
[6] = target: NTRK3 (UniProt Q16288)
[7] = target: PAK4 (UniProt O96013)
[8] = target: PBK (UniProt Q96KB5)
[9] = target: PDGFRB (UniProt P09619)
[10] = target: PDK1 (UniProt Q15118)
[11] = target: PDPK1 (UniProt O15530)
[12] = target: PIK4CA (UniProt P42356)
[13] = target: PIK4CB (UniProt Q9UBF8)
[14] = target: PLK1 (UniProt P53350)
[15] = target: PRKAA1 (UniProt Q13131)
[16] = target: PRKCA (UniProt P17252)
[17] = target: PTK2 (UniProt Q05397)
[18] = target: PTK2B (UniProt Q14289)
[19] = target: RAF1 (UniProt P04049)
[20] = target: RAF1_S257L (clone: RAF1_mut) (UniProt P04049)

By UniProt entry, the sequences of proteins in these tests, tags left out. Where a name states a change or a piece, a line headed by the entry shows the natural chain unless it says otherwise.
UniProt P49137, whole entry, looked up: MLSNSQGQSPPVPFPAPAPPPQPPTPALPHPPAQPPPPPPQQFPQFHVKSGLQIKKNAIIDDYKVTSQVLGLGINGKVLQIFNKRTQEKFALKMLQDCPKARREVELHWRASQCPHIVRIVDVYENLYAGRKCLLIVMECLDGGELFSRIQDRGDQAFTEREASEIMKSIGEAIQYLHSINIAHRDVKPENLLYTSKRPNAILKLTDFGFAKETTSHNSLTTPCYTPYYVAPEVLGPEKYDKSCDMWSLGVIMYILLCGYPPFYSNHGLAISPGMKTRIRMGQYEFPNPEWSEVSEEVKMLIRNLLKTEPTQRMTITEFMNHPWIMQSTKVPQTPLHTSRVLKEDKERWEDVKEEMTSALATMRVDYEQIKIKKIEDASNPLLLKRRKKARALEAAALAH
UniProt Q16620, whole entry, looked up: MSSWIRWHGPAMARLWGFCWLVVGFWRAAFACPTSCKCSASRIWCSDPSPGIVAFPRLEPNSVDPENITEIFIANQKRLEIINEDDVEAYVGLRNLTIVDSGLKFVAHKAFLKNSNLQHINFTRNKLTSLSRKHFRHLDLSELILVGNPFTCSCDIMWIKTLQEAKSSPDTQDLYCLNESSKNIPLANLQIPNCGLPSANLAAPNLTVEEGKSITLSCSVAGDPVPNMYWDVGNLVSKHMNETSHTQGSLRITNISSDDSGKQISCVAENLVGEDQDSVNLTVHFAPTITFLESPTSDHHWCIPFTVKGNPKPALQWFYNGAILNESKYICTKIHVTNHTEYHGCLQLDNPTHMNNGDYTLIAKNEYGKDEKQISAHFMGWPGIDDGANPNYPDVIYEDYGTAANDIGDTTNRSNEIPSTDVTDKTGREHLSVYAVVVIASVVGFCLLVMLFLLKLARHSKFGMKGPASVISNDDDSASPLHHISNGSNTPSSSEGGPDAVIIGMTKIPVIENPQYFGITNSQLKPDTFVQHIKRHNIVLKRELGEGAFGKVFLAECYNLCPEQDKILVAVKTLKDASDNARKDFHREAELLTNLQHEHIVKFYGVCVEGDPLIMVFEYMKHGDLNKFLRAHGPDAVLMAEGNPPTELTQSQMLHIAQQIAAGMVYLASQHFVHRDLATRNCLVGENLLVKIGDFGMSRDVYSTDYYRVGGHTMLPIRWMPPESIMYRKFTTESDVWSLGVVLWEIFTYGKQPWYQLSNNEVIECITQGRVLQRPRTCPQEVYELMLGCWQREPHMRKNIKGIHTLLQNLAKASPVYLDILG
UniProt Q96KB5: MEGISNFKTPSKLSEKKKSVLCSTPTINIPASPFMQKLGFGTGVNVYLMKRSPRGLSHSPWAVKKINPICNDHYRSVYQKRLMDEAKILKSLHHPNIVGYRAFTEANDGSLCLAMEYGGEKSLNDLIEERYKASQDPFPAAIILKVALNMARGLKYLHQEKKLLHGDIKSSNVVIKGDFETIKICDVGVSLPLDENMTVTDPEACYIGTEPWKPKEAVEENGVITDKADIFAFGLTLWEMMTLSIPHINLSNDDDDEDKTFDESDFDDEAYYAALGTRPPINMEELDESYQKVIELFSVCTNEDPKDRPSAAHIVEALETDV
UniProt P42356, whole entry, looked up: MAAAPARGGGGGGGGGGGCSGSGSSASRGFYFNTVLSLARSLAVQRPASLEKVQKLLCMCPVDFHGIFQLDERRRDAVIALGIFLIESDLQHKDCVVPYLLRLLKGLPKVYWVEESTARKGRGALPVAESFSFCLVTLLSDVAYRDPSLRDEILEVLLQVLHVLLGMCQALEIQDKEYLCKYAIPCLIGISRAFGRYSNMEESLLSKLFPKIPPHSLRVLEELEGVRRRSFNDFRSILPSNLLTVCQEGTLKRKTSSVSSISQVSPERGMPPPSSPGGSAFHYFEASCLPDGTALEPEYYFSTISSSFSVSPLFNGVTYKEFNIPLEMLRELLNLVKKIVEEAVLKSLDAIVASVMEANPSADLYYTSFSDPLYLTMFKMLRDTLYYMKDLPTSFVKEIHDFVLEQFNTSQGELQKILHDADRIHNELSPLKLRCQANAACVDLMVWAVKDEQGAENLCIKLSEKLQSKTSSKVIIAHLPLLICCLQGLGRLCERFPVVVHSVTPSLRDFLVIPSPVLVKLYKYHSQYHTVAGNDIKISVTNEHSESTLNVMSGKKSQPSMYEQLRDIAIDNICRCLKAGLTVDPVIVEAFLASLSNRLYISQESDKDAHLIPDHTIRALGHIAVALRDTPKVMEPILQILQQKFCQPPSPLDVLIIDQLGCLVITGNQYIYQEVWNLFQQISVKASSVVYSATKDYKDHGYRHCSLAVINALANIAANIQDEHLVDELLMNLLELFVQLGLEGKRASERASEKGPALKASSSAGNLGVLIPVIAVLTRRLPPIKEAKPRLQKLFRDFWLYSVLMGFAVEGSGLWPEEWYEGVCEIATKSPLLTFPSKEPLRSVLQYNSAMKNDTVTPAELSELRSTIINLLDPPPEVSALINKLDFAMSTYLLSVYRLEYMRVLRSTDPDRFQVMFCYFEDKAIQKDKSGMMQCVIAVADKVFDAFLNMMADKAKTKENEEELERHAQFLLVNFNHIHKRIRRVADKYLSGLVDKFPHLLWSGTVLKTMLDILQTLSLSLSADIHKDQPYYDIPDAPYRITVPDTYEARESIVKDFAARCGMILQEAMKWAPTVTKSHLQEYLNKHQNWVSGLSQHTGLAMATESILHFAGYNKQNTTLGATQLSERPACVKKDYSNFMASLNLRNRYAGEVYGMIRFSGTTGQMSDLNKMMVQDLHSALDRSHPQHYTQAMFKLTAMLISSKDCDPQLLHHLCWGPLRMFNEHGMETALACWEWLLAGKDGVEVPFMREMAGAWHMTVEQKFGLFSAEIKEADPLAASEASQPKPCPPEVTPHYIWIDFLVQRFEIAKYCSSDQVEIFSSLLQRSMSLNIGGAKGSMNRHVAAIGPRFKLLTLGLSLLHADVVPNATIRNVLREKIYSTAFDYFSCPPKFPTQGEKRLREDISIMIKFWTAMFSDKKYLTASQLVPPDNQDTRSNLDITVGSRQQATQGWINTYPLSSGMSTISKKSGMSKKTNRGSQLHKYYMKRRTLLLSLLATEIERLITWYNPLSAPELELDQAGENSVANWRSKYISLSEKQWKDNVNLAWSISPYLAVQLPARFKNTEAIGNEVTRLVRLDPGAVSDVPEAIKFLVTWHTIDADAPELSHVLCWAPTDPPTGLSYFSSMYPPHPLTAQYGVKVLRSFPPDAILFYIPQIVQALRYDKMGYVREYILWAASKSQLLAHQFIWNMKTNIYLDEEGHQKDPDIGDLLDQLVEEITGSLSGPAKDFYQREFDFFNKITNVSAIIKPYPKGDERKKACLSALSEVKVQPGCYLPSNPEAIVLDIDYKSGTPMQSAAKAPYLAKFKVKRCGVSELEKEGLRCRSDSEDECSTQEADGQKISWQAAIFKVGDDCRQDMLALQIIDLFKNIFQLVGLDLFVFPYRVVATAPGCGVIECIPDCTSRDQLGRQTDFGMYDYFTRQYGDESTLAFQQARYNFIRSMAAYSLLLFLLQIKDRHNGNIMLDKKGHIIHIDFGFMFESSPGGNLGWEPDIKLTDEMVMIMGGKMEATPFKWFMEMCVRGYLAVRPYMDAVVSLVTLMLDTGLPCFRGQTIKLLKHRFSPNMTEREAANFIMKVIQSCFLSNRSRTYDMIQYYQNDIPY
UniProt P53350, whole entry: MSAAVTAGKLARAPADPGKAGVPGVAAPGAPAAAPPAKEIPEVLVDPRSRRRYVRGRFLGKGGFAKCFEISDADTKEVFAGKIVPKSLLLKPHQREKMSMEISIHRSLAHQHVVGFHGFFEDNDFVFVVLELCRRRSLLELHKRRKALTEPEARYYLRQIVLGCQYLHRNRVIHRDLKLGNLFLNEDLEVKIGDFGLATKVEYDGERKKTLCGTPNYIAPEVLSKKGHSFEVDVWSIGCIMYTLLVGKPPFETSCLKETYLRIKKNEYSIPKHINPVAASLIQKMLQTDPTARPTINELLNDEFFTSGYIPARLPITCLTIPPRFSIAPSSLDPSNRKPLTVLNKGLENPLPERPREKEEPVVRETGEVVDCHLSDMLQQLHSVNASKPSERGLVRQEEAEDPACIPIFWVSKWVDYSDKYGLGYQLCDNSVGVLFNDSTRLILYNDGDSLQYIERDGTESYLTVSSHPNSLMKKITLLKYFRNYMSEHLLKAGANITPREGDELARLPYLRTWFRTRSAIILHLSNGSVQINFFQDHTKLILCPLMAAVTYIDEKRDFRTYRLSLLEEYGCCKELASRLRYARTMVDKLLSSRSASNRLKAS
UniProt Q05397, whole entry, looked up: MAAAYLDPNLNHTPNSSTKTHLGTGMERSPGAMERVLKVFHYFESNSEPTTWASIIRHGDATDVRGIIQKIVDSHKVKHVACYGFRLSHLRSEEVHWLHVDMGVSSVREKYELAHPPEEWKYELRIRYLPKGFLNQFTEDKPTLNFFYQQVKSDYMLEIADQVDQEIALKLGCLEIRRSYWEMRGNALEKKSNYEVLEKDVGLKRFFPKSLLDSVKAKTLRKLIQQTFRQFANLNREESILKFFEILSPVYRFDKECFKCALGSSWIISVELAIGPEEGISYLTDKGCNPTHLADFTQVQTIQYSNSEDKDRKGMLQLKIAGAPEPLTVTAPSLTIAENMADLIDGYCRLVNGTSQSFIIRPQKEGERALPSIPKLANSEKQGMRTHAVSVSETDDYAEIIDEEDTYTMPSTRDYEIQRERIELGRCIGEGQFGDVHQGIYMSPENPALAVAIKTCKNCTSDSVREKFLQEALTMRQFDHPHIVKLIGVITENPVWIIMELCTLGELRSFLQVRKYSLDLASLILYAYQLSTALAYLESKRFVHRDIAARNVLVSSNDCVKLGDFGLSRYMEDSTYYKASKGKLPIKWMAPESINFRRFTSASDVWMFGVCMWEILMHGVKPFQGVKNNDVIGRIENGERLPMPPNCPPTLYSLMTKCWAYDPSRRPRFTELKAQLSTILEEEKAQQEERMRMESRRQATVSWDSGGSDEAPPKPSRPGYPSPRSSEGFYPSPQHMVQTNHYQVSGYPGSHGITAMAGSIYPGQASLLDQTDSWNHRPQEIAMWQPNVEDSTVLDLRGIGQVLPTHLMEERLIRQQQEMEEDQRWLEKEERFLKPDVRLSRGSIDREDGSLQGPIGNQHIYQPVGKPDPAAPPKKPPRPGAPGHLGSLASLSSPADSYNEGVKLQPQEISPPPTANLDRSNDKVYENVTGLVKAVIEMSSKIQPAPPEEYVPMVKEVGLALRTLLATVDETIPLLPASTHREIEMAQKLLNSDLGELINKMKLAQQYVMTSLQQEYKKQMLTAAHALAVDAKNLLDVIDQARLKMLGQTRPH
UniProt Q14289, whole entry, looked up: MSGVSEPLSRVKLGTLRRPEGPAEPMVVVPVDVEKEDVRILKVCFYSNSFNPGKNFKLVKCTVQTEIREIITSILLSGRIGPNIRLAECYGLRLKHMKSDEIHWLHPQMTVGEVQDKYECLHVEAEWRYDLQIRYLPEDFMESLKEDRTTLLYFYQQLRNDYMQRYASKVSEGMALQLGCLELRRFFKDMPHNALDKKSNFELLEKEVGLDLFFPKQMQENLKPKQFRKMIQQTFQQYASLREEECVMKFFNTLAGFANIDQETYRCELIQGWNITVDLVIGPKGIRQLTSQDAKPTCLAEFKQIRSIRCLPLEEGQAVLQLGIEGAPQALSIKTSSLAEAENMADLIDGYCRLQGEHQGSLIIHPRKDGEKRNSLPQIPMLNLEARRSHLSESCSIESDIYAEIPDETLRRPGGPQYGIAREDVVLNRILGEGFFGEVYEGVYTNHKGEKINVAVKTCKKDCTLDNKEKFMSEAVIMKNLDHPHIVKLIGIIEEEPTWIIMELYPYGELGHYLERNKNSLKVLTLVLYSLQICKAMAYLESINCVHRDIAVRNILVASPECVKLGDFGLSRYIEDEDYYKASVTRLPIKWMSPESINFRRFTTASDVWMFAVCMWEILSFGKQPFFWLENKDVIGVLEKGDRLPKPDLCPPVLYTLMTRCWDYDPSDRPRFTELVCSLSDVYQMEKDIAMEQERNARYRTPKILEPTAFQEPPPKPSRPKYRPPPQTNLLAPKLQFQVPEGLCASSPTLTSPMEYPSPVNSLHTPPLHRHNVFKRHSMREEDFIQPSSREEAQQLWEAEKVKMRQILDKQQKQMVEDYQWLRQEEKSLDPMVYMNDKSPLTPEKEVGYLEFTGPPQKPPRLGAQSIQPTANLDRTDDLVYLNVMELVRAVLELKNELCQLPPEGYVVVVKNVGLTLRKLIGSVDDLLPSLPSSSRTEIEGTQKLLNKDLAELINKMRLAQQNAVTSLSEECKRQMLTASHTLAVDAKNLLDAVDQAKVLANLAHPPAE

Measured: kinase-Nluc reporter destabilization hit call

C[C@@H]1CN(CC(=O)Nc2ccc3c(c2)Cc2cccc(-c4cc(=O)cc(N5CCOCC5)o4)c2S3)C[C@H](C)O1 (2.5 µM)
inactive: [1] 0 | [2] 0 | [3] 0 | [4] 0 | [5] 0 | [6] 0 | [7] 0 | [8] 0 | [9] 0 | [10] 0 | [11] 0 | [12] 0 | [13] 0 | [14] 0 | [15] 0 | [16] 0 | [17] 0 | [18] 0 | [19] 0 | [20] 0

CC[C@H](C)[C@@H]1NC(=O)[C@@H]2CCCN2C(=O)[C@@H]2CCCN2C(=O)[C@@H]2CCCN2C(=O)[C@H](CC(C)C)NC(=O)CNC(=O)CNC(=O)[C@H](Cc2ccccc2)NC1=O [Heterophyllin B] (10 µM)
inactive: [1] 0 | [2] 0 | [3] 0 | [4] 0 | [5] 0 | [6] 0 | [7] 0 | [8] 0 | [9] 0 | [10] 0 | [11] 0 | [12] 0 | [13] 0 | [14] 0 | [15] 0 | [16] 0 | [17] 0 | [18] 0 | [19] 0 | [20] 0

C=CC(=O)Nc1cc(C(=O)NC)cc(-c2n[nH]c3ccccc23)c1 (10 µM)
inactive: [1] 0 | [2] 0 | [3] 0 | [4] 0 | [5] 0 | [6] 0 | [7] 0 | [8] 0 | [9] 0 | [10] 0 | [11] 0 | [12] 0 | [13] 0 | [14] 0 | [15] 0 | [16] 0 | [17] 0 | [18] 0 | [19] 0 | [20] 0

CCCCNc1ncc2c(-c3ccc(CN4CCN(C)CC4)cc3)cn([C@H]3CC[C@H](O)CC3)c2n1 [UNC2025 (hydrochloride)] (2.5 µM)
inactive: [1] 0 | [2] 0 | [3] 0 | [4] 0 | [5] 0 | [6] 0 | [7] 0 | [8] 0 | [9] 0 | [10] 0 | [11] 0 | [12] 0 | [13] 0 | [14] 0 | [15] 0 | [16] 0 | [17] 0 | [18] 0 | [19] 0 | [20] 0

CC(C)c1cnn2c(NCc3ccccc3)cc(NCCCCCCN)nc12 [BS-181 (hydrochloride)] (10 µM)
inactive: [1] 0 | [2] 0 | [3] 0 | [4] 0 | [5] 0 | [6] 0 | [7] 0 | [8] 0 | [9] 0 | [10] 0 | [11] 0 | [12] 0 | [13] 0 | [14] 0 | [15] 0 | [16] 0 | [17] 0 | [18] 0 | [19] 0 | [20] 0

CN(c1ccc(C(F)(F)F)cc1)S(=O)(=O)c1ccc(C(=O)Nc2nc(-c3ccccn3)cs2)cc1 (2.5 µM)
inactive: [1] 0 | [2] 0 | [3] 0 | [4] 0 | [5] 0 | [6] 0 | [7] 0 | [8] 0 | [9] 0 | [10] 0 | [11] 0 | [12] 0 | [13] 0 | [14] 0 | [15] 0 | [16] 0 | [17] 0 | [18] 0 | [19] 0 | [20] 0

COc1ccc(-c2cnc3c(-c4cccc5ncccc45)cnn3c2)cc1 (10 µM)
inactive: [1] 0 | [2] 0 | [3] 0 | [4] 0 | [5] 0 | [6] 0 | [7] 0 | [8] 0 | [9] 0 | [10] 0 | [11] 0 | [12] 0 | [13] 0 | [14] 0 | [15] 0 | [16] 0 | [17] 0 | [18] 0 | [19] 0 | [20] 0

CCN1C(C)(C)CC(Oc2ccc(C(=O)Nc3ccc(NC(=O)Nc4cc(C(C)(C)C)on4)cc3)nc2)CC1(C)C (10 µM)
inactive: [1] 0 | [2] 0 | [3] 0 | [4] 0 | [5] 0 | [6] 0 | [7] 0 | [8] 0 | [9] 0 | [10] 0 | [11] 0 | [12] 0 | [13] 0 | [14] 0 | [15] 0 | [16] 0 | [17] 0 | [18] 0 | [19] 0 | [20] 0

Sorted by molar mass (smallest number first): part of the list above.
COc1ccc(-c2cnc3c(-c4cccc5ncccc45)cnn3c2)cc1 (10 µM)
inactive: [1] 0 | [2] 0 | [3] 0 | [4] 0 | [5] 0 | [6] 0 | [7] 0 | [8] 0 | [9] 0 | [10] 0 | [11] 0 | [12] 0 | [13] 0 | [14] 0 | [15] 0 | [16] 0 | [17] 0 | [18] 0 | [19] 0 | [20] 0

CC(C)c1cnn2c(NCc3ccccc3)cc(NCCCCCCN)nc12 [BS-181 (hydrochloride)] (10 µM)
inactive: [1] 0 | [2] 0 | [3] 0 | [4] 0 | [5] 0 | [6] 0 | [7] 0 | [8] 0 | [9] 0 | [10] 0 | [11] 0 | [12] 0 | [13] 0 | [14] 0 | [15] 0 | [16] 0 | [17] 0 | [18] 0 | [19] 0 | [20] 0

CN(c1ccc(C(F)(F)F)cc1)S(=O)(=O)c1ccc(C(=O)Nc2nc(-c3ccccn3)cs2)cc1 (2.5 µM)
inactive: [1] 0 | [2] 0 | [3] 0 | [4] 0 | [5] 0 | [6] 0 | [7] 0 | [8] 0 | [9] 0 | [10] 0 | [11] 0 | [12] 0 | [13] 0 | [14] 0 | [15] 0 | [16] 0 | [17] 0 | [18] 0 | [19] 0 | [20] 0

Next structures follow.

C[C@@H]1CN(Cc2cn[nH]c2-c2ccc(C#N)cc2)CCN1c1ccc(C(F)(F)F)cn1 (2.5 µM)
inactive: [1] 0 | [2] 0 | [3] 0 | [4] 0 | [5] 0 | [6] 0 | [7] 0 | [8] 0 | [9] 0 | [10] 0 | [11] 0 | [12] 0 | [13] 0 | [14] 0 | [15] 0 | [16] 0 | [17] 0 | [18] 0 | [19] 0 | [20] 0

CCc1ccc(NC(=O)Nc2ccccc2)cc1 (10 µM)
inactive: [1] 0 | [2] 0 | [3] 0 | [4] 0 | [5] 0 | [6] 0 | [7] 0 | [8] 0 | [9] 0 | [10] 0 | [11] 0 | [12] 0 | [13] 0 | [14] 0 | [15] 0 | [16] 0 | [17] 0 | [18] 0 | [19] 0 | [20] 0

COC(=O)c1cc2c(OC(C)C)cc(OC(C)C)cc2[nH]1 (2.5 µM)
inactive: [1] 0 | [2] 0 | [3] 0 | [4] 0 | [5] 0 | [6] 0 | [7] 0 | [8] 0 | [9] 0 | [10] 0 | [11] 0 | [12] 0 | [13] 0 | [14] 0 | [15] 0 | [16] 0 | [17] 0 | [18] 0 | [19] 0 | [20] 0

C1=N/C2=N/c3ccc(OCCN4CCCC4)c(c3)COC/C=C/COCc3cccc(c3)C(=C1)N2 [Pacritinib] (2.5 µM)
inactive: [1] 0 | [2] 0 | [3] 0 | [4] 0 | [5] 0 | [6] 0 | [7] 0 | [8] 0 | [9] 0 | [10] 0 | [11] 0 | [12] 0 | [13] 0 | [14] 0 | [15] 0 | [16] 0 | [17] 0 | [18] 0 | [19] 0 | [20] 0

CNCCOc1ccccc1C(C)(C)Nc1nccn(-c2cc(C(=O)NC3CC3)ccc2C)c1=O [p38α inhibitor 2] (10 µM)
inactive: [1] 0 | [2] 0 | [3] 0 | [4] 0 | [5] 0 | [6] 0 | [7] 0 | [8] 0 | [9] 0 | [10] 0 | [11] 0 | [12] 0 | [13] 0 | [14] 0 | [15] 0 | [16] 0 | [17] 0 | [18] 0 | [19] 0 | [20] 0

Cc1ncc(F)c(Nc2n[nH]c3c2CN(C(=O)N2C[C@@H](C)N(CC4CCOCC4)C[C@@H]2C)C3(C)C)n1 (10 µM)
inactive: [1] 0 | [2] 0 | [3] 0 | [4] 0 | [5] 0 | [6] 0 | [7] 0 | [8] 0 | [9] 0 | [10] 0 | [11] 0 | [12] 0 | [13] 0 | [14] 0 | [15] 0 | [16] 0 | [17] 0 | [18] 0 | [19] 0 | [20] 0

CC(=O)NCC(=O)N[C@@H](C)C(=O)N[C@@H](CCC(N)=O)C(=O)N[C@@H](Cc1ccccc1)C(=O)N[C@@H](CO)C(=O)N[C@@H](CCCCN)C(=O)N[C@H](C(=O)N[C@@H](C)C(=O)N[C@@H](C)C(=O)N[C@@H](CCCCN)C(=O)O)[C@@H](C)O (10 µM)
inactive: [1] 0 | [2] 0 | [3] 0 | [4] 0 | [5] 0 | [6] 0 | [7] 0 | [8] 0 | [9] 0 | [10] 0 | [11] 0 | [12] 0 | [13] 0 | [14] 0 | [15] 0 | [16] 0 | [17] 0 | [18] 0 | [19] 0 | [20] 0

Cc1cc(=O)[nH]c(=S)[nH]1 [Methylthiouracil] (10 µM)
inactive: [1] 0 | [2] 0 | [3] 0 | [4] 0 | [5] 0 | [6] 0 | [7] 0 | [8] 0 | [9] 0 | [10] 0 | [11] 0 | [12] 0 | [13] 0 | [14] 0 | [15] 0 | [16] 0 | [17] 0 | [18] 0 | [19] 0 | [20] 0

COc1cccc2cc(-c3nc([C@H]4CC[C@H](C(=O)O)CC4)n4ncnc(N)c34)[nH]c12 (2.5 µM)
inactive: [1] 0 | [2] 0 | [3] 0 | [4] 0 | [5] 0 | [6] 0 | [7] 0 | [8] 0 | [9] 0 | [10] 0 | [11] 0 | [12] 0 | [13] 0 | [14] 0 | [15] 0 | [16] 0 | [17] 0 | [18] 0 | [19] 0 | [20] 0

Reference: the supplement of paper PMC12823440, “Inhibitors supercharge kinase turnover through native proteolytic circuits” (Nature, 2025)
